Results as given in PMC10530851.
Results are given in words; binding and its absence hold for the method and conditions named. Binding seen in cells or lysates may run through a third protein. Some results given as binding are weak or reduced against the parent protein; the word gives no strength.

By UniProt entry, the sequences of proteins in these tests, tags left out.
UniProt P46527: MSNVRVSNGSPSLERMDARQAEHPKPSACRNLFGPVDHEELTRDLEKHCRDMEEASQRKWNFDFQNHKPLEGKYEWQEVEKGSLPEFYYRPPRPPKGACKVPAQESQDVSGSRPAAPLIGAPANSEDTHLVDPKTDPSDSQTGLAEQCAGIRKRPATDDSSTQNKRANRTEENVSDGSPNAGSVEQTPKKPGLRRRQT
UniProt Q86TM6: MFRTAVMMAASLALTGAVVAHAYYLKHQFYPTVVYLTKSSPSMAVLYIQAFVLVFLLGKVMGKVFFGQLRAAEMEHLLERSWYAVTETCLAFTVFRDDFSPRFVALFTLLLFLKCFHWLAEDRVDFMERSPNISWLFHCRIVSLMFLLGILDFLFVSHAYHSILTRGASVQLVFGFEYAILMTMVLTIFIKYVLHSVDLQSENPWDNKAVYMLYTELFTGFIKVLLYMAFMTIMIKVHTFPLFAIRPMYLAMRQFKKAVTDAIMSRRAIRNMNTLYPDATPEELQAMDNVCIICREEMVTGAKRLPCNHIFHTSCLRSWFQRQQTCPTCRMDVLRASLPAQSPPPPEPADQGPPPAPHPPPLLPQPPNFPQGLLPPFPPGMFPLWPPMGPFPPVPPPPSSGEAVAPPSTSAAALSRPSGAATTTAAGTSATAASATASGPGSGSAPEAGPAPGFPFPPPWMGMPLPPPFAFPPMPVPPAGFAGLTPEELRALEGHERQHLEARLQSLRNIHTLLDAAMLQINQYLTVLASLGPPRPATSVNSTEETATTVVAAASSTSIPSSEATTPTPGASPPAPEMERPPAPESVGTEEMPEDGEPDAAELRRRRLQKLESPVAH

Assays:
[1] = target: p27 (human (endogenous in MHCC-97H and HCCLM3)) (UniProt P46527); test: co-IP; endogenous proteins in MHCC-97H and HCCLM3 cell lysates; coimmunoprecipitation kit (Thermo 26149), antibody coupled to resin, lysate overnight at 4 °C, eluate analysed by Western blotting
p27 (in HEK293T cells) = p27 (in HEK293T cells) (UniProt P46527); test: co-IP; HEK293T cell lysate; coimmunoprecipitation kit (Thermo 26149), antibody coupled to resin, lysate overnight at 4 °C, eluate analysed by Western blotting

binding [1]	binding (p27 (in HEK293T cells))	Substance
binds	–	E3 ubiquitin ligase HRD1 (from UniProt Q86TM6 1-617) (enzyme)
–	binds	E3 ubiquitin ligase HRD1 (in HEK293T cells) (from UniProt Q86TM6 1-617) (enzyme)
